Measured values reported in the supplement of paper PMC10331698.
± gives the standard deviation of the averaged measurements. Most values lie at the level of the controls, where differences are scatter.

Experiments:
Experiment in all cases: level (log10 ratio to DMSO vehicle control); higher = higher biomarker level / cell amount than vehicle control
[1] = compound: C=CC(=O)OCC(F)(F)C(F)(F)C(F)(F)COC(=O)C=C [1H,1H,5H,5H-Perfluoro-1,5-pentanediol diacrylate]; conditions: 2200 nM; in DMSO
Experimental: (§1)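 BioMAP Diversity Plus panel of 12 human primary cell co-culture systems (3C, 4H, LPS, SAg, BT, BF4T, BE3C, CASM3C, HDF3CGF, KF3CT, MyoF, Mphg). Compounds were added 1 h before stimulation and left for 24 h (MyoF 48 h; BT 72 h for soluble read-outs or 6 d for IgG). Biomarkers were read by ELISA, cytotoxicity by SRB, PBMC viability and proliferation by Alamar Blue. Each well value was divided by the mean of 8 DMSO control wells on the same plate and log10 transformed; duplicate blinded samples were tested at 4 concentrations.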

[2] = compound: C=CC(=O)OCCC(F)(F)C(F)(F)C(F)(F)C(F)(F)C(F)(F)C(F)(F)C(F)(F)C(F)(F)F [8:2 Fluorotelomer acrylate]; conditions: 2200 nM; in DMSO
Experimental: as §1

[3] = compound: C=CC(=O)OCCC(F)(F)C(F)(F)C(F)(F)C(F)(F)F [2-(Perfluorobutyl)ethyl acrylate]; conditions: 2200 nM; in DMSO
Experimental: as §1

[4] = compound: FC(F)(F)C(F)(C(F)(F)F)C(F)(F)C(F)(F)CC1CO1 [3-(Perfluoro-3-methylbutyl)-1,2-propenoxide]; conditions: in DMSO
Experimental: as §1

Perfluoro-1-iodohexane = compound: FC(F)(F)C(F)(F)C(F)(F)C(F)(F)C(F)(F)C(F)(F)I [Perfluoro-1-iodohexane]; conditions: in DMSO
Experimental: as §1

[5] = compound: FC(F)(I)C(F)(F)C(F)(F)C(F)(F)C(F)(F)C(F)(F)I [1,6-Diiodoperfluorohexane]; conditions: 2200 nM; in DMSO
Experimental: as §1

[6] = compound: O=C(Cl)C(F)(F)C(F)(F)C(F)(F)C(=O)Cl [Hexafluoroglutaryl chloride]; conditions: 2200 nM; in DMSO
Experimental: as §1

[7] = compound: O=C(O)C(F)(F)C(F)(F)C(F)(F)C(F)(F)C(F)(F)C(F)(F)C(F)(F)C(F)(F)C(F)(F)C(F)(F)C(F)(F)C(F)(F)C(F)(F)F [Perfluorotetradecanoic acid]; conditions: in DMSO
Experimental: as §1

[8] = compound: O=C(O)C=C(C(F)(F)F)C(F)(F)F [3,3-Bis(trifluoromethyl)-2-propenoic acid]; conditions: in DMSO
Experimental: as §1

[9] = compound: O=S(=O)(O)C(F)(F)C(F)(F)C(F)(F)C(F)(F)C(F)(F)C(F)(F)F [Perfluorohexanesulfonic acid]; conditions: 2200 nM; in DMSO
Experimental: as §1

[10] = compound: O=S(=O)(O)CCC(F)(F)C(F)(F)C(F)(F)C(F)(F)F [4:2 Fluorotelomer sulfonic acid]; conditions: 2200 nM; in DMSO
Experimental: as §1

Hexafluoroamylene glycol = compound: OCC(F)(F)C(F)(F)C(F)(F)CO [Hexafluoroamylene glycol]; conditions: 2200 nM; in DMSO
Experimental: as §1

[11] = compound: OCCCC(F)(F)C(F)(F)C(F)(F)C(F)(F)C(F)(F)C(F)(F)C(F)(F)F [7:3 Fluorotelomer alcohol]; conditions: 2200 nM; in DMSO
Experimental: as §1

Test System	level (log10) [1]	level (log10) [2]	level (log10) [3]	level (log10) ([4]; 740 nM)	level (log10) ([4]; 2200 nM)	level (log10) (Perfluoro-1-iodohexane; 2200 nM)	level (log10) (Perfluoro-1-iodohexane; 6700 nM)	level (log10) (Perfluoro-1-iodohexane; 20000 nM)	level (log10) (Perfluoro-1-iodohexane; 60000 nM)	level (log10) [5]	level (log10) [6]	level (log10) ([7]; 740 nM)	level (log10) ([7]; 2200 nM)	level (log10) ([8]; 2200 nM)	level (log10) ([8]; 6700 nM)	level (log10) ([8]; 20000 nM)	level (log10) ([8]; 60000 nM)	level (log10) [9]	level (log10) [10]	level (log10) (Hexafluoroamylene glycol)	level (log10) [11]
HDF3CGF:CCL2/MCP-1	-0.245 ± 0.0085	-0.0295 ± 0.053	-0.0195 ± 0.018	-0.0155 ± 0.04	-0.0365 ± 0.033	-0.023 ± 0.031	-0.0125 ± 0.013	-0.02 ± 0.0099	-0.065 ± 0.034	-0.005 ± 0.0071	-0.024 ± 0.037	0.0295 ± 0.0078	0.018 ± 0.0042	-0.0565 ± 0.0064	-0.0775 ± 0.052	-0.0935 ± 0.056	-0.084 ± 0.028	0.0215 ± 0.016	-0.003 ± 0.0071	0.0205 ± 0.028	-0.0065 ± 0.019
LPS:SRB	-0.005 ± 0.016	-0.006	0.0025 ± 0.018	0.0065 ± 0.016	0.0075 ± 0.018	-0.0045 ± 0.0035	-0.0025 ± 0.0064	-0.0055 ± 0.0064	-0.0085 ± 0.00071	0.008 ± 0.017	-0.0005 ± 0.0035	-0.001 ± 0.0042	-0.019	0.008 ± 0.014	-0.006 ± 0.0071	-0.024 ± 0.0085	-0.044 ± 0.0057	0.004 ± 0.0085	-0.001 ± 0.0057	-0.0065 ± 0.013	-0.002 ± 0.0071
HDF3CGF:M-CSF	-0.278 ± 0.089	-0.0075 ± 0.012	0.0045 ± 0.0035	0.022 ± 0.076	-0.0255 ± 0.05	0.033 ± 0.013	0.0155 ± 0.019	0.024 ± 0.0028	-0.021 ± 0.034	0.0005 ± 0.0021	0.0085 ± 0.03	0.003 ± 0.011	0.051 ± 0.03	-0.003 ± 0.02	-0.0595 ± 0.0078	-0.072 ± 0.042	-0.051 ± 0.014	0.0085 ± 0.015	-0.0395 ± 0.053	-0.0395 ± 0.04	0.0225 ± 0.032
BF4T:CD106/VCAM-1	-0.0185 ± 0.025	-0.0025 ± 0.081	-0.0095 ± 0.063	0.0025 ± 0.069	0 ± 0.05	0.029 ± 0.0099	-0.0055 ± 0.0035	-0.0215 ± 0.0035	-0.0745 ± 0.019	-0.0005 ± 0.0092	0.007 ± 0.044	0.0255 ± 0.005	-0.003 ± 0.014	-0.0335 ± 0.057	-0.0755 ± 0.0064	-0.0945 ± 0.005	-0.047 ± 0.067	0.0185 ± 0.054	0.012 ± 0.045	0.0325 ± 0.079	0.0115 ± 0.076
SAg:CD40	-0.0275 ± 0.052	-0.006 ± 0.0099	-0.0255 ± 0.0021	-0.0185 ± 0.025	-0.021 ± 0.0085	-0.0045 ± 0.028	-0.019 ± 0.013	-0.0195 ± 0.018	0.012 ± 0.061	-0.0255 ± 0.032	0.007 ± 0.011	-0.0405 ± 0.016	-0.0495 ± 0.021	0.018 ± 0.0071	0.0205 ± 0.005	-0.01 ± 0.017	-0.094 ± 0.038	-0.003 ± 0.0057	-0.005 ± 0.028	0.003 ± 0.048	-0.0215 ± 0.0078
LPS:CXCL8/IL-8	0.0065 ± 0.016	0.0145 ± 0.064	0.0205 ± 0.012	0.0345 ± 0.012	0.025 ± 0.048	-0.0225 ± 0.005	-0.0045 ± 0.015	0.005	0.015 ± 0.017	0.0055 ± 0.012	-0.0155 ± 0.032	0.011 ± 0.0085	-0.0075 ± 0.0035	-0.0265 ± 0.035	-0.052 ± 0.0099	-0.047 ± 0.037	-0.007 ± 0.069	0.0115 ± 0.019	0.0355 ± 0.093	0.05 ± 0.04	0.001 ± 0.033
CASM3C:IL-6	-0.007 ± 0.051	0.0105 ± 0.04	0.01 ± 0.042	0.012 ± 0.052	-0.0245 ± 0.019	0.026 ± 0.018	-0.0035 ± 0.012	-0.0055 ± 0.0021	0.018 ± 0.0099	-0.001 ± 0.017	0.0255 ± 0.046	0.019 ± 0.044	-0.0155 ± 0.015	-0.0385 ± 0.09	-0.097 ± 0.045	-0.148 ± 0.0071	-0.189 ± 0.026	0.011 ± 0.068	0.022 ± 0.031	0.007 ± 0.044	0.0035 ± 0.05
3C:CCL2/MCP-1	-0.0095 ± 0.043	-0.002 ± 0.016	-0.002 ± 0.021	0.0225 ± 0.033	-0.0025 ± 0.00071	-0.0055 ± 0.015	-0.0105 ± 0.0021	-0.006 ± 0.02	0.003 ± 0.047	0.02 ± 0.016	0.045 ± 0.02	0.0005 ± 0.013	-0.019 ± 0.011	-0.0025 ± 0.0064	0.001 ± 0.011	-0.0065 ± 0.0064	0.0015 ± 0.037	-0.021 ± 0.035	0.0065 ± 0.054	0.018 ± 0.0042	0.0055 ± 0.022
SAg:SRB	0.005 ± 0.025	-0.006 ± 0.0042	0.01 ± 0.0099	0.004 ± 0.013	0.0125 ± 0.0092	0.0045 ± 0.012	-0.0075 ± 0.011	-0.002 ± 0.0014	-0.0045 ± 0.011	0.015 ± 0.02	0.0005 ± 0.015	-0.002 ± 0.0099	-0.024 ± 0.0057	0.011 ± 0.0057	0.0025 ± 0.0021	-0.006 ± 0.0085	-0.0275 ± 0.005	-0.0155 ± 0.012	0.0015 ± 0.0078	0.0055 ± 0.018	-0.001 ± 0.011
BF4T:tPA	0.013 ± 0.04	-0.0245 ± 0.066	0.0065 ± 0.03	0.0115 ± 0.021	0.0105 ± 0.016	-0.0045 ± 0.026	0.0015 ± 0.005	-0.0065 ± 0.018	0.036 ± 0.047	0.01 ± 0.027	0.0055 ± 0.023	0.0395 ± 0.022	0.0035 ± 0.005	-0.06 ± 0.035	-0.0965 ± 0.035	-0.12 ± 0.026	-0.11 ± 0.029	0.014 ± 0.041	0.0015 ± 0.035	-0.002 ± 0.054	0.005 ± 0.011
SAg:CD62E/E-Selectin	-0.0725 ± 0.036	0.0055 ± 0.016	0.0045 ± 0.019	-0.011 ± 0.0057	-0.0025 ± 0.013	0.0075 ± 0.026	-0.009 ± 0.0014	0.0055 ± 0.019	0.0095 ± 0.044	0.0015 ± 0.013	-0.004 ± 0.038	0.0145 ± 0.0035	0.0025 ± 0.0078	-0.0665 ± 0.019	-0.096 ± 0.0071	-0.192 ± 0.032	-0.459 ± 0.11	-0.015 ± 0.0042	-0.001 ± 0.0099	-0.003 ± 0.027	0.0235 ± 0.03
CASM3C:CD142/Tissue Factor	-0.0145 ± 0.043	-0.0485 ± 0.0064	-0.035 ± 0.023	-0.0225 ± 0.019	-0.0175 ± 0.021	0.0005 ± 0.019	-0.009 ± 0.013	-0.018 ± 0.0042	-0.031	-0.024 ± 0.0071	-0.0405 ± 0.13	-0.001 ± 0.0014	-0.0175 ± 0.0035	0.0175 ± 0.0021	0.055 ± 0.018	-0.009 ± 0.041	-0.0635 ± 0.06	-0.0045 ± 0.0092	0.016 ± 0.017	0.022 ± 0.059	-0.001 ± 0.028
